Source: PubChem BioAssay AID652163 (Broad Institute, 2013)
The whole screen tested about 360,000 compounds, of which about 500 (0.14%) were called active. The inconclusive results got no clear call from the source; some entries with a clear call stand among them for comparison.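 Rule for the calls: active = mean inhibition of at least 70% across replicates, with every replicate also reaching that level; inconclusive = mean inhibition reaches 70% but some replicates fall short; inactive = mean inhibition below 70%.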

By UniProt entry, the sequences of proteins in these tests, tags left out.
UniProt P26447, whole entry, looked up: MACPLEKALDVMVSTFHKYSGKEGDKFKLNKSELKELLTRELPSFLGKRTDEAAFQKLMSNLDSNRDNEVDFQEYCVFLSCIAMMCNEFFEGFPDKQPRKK

What follows are molecules tested against Protein S100-A4 (Homo sapiens) (UniProt P26447) (assay: inhibitors of S100A4-myosin IIA peptide binding, primary screen, biochemical, fluorescence polarization, TAMRA-MyoIIA peptide (AID 652163)). Conditions: at 10.7 µM, hits give high values.
Outline: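 Compound dosing: one dose per compound; test system: human S100A4 monomer with TAMRA-labelled myosin IIA peptide; probe or stimulus: TAMRA-labelled myosin IIA heavy-chain peptide probe, 5 nM; medium: HEPES buffer with Ca2+, pH 7.2; schedule: 5 min incubation before reading; benchmarks: neutral control DMSO, positive control TFP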

inhibition, inactive:
COc1ccc(CCNc2nc(=S)[nH]c3cc(OC)c(OC)cc23)cc1OC -4.11%, COc1ccc(S(=O)(=O)Nc2ccc3c(c2)C(=O)N([C@H](C)CO)C[C@@H](C)[C@@H](CN(C)S(=O)(=O)c2ccc(F)cc2)O3)cc1 -1.29%, Clc1ccc(C2=NNC(=NCC3CCCO3)SC2)cc1 (stereo not drawn) 2.62%, C[C@@H]1CCCCO[C@H](CN(C)S(=O)(=O)c2ccccc2)[C@H](C)CN([C@H](C)CO)C(=O)c2cc(NS(C)(=O)=O)ccc2O1 8.11%, CCC(CC)NC(=O)Nc1ccccc1C(F)(F)F 4.54%, COc1ccc(NC(=O)N(C)C[C@@H]2OCCCC[C@@H](C)Oc3ccc(NC(=O)c4ccccc4)cc3C(=O)N([C@H](C)CO)C[C@@H]2C)cc1 -2.39%, COc1ccc(NC(=O)N(C)C[C@H]2Oc3ccc(NS(=O)(=O)c4ccc(OC)cc4)cc3CC(=O)N([C@@H](C)CO)C[C@H]2C)cc1 -13.9%, C[C@H](CO)N1C[C@H](C)[C@H](CN(C)Cc2ccc(Oc3ccccc3)cc2)Oc2ccc(NS(=O)(=O)c3ccc(Cl)cc3)cc2C1=O 15.9%, COc1ccccc1/C=N/Nc1cc(C)nc2ccc(C)cc12 -8.54%, CO[C@@H]1CN(C)C(=O)c2ccc(NC(=O)C3CCOCC3)cc2OC[C@@H](C)N(C(=O)c2ccccc2)C[C@H]1C -3.9%, O=C1CN(S(=O)(=O)Cc2ccccc2)C[C@H]2[C@H](c3ccc(C#Cc4ccc(F)cc4)cc3)[C@H](CO)N12 0.743%, N#C/C(=C(/O)c1ccc(Br)s1)c1nc2ccccc2[nH]1 1.33%, COc1ccc(N2C(=O)c3ccccc3NC(=O)C2C(=O)NCc2ccco2)cc1 (stereo not drawn) -3.94%, CN(C)C(/C=C/Nc1ccc(Br)cc1)=C(C#N)C#N -0.53%, CC(C)NC(=O)N(C)C[C@H]1Oc2ccc(NS(C)(=O)=O)cc2C(=O)N([C@H](C)CO)C[C@H]1C -3.86%

inhibition, active:
CO[C@H]1CN(C)C(=O)c2ccc(NS(=O)(=O)c3ccccc3)cc2OC[C@H](C)N(Cc2cccnc2)C[C@@H]1C 79.4%, Nc1cnccc1C(=O)O 79.7%, O=C(c1cnccn1)N1CC(=O)N2[C@H](CO)[C@@H](c3ccc(-c4ccc(F)cc4)cc3)[C@H]2C1 124%, O=C(Nc1ccccc1F)N[C@@H]1CC[C@H](CCNC(=O)C2CCCCC2)O[C@H]1CO 90.2%, COc1ccc2c3c(n(C)c2c1)[C@@H](CO)N(C(=O)Nc1ccc(F)cc1)CC31CCN(C)CC1 82.2%, CCCC(=O)Nc1ccc2c(c1)C(=O)N(C)C[C@H](OC)[C@H](C)CN(Cc1ccccc1)[C@@H](C)CO2 98%, COc1ccc(CN(C)C[C@@H]2OCCCC[C@H](C)Oc3ccc(NS(=O)(=O)c4cn(C)cn4)cc3C(=O)N([C@@H](C)CO)C[C@H]2C)cc1 110%, CC(C)C#Cc1ccc2c(c1)O[C@@H](CN(C)C(=O)NC(C)C)[C@H](C)CN([C@H](C)CO)S2(=O)=O 106%, COc1cccc(N=Nc2ccc3ccccc3c2O)c1 122%, O=C(C[C@@H]1C=C[C@@H](NS(=O)(=O)c2cccc(F)c2)[C@@H](CO)O1)NCc1ccc2c(c1)OCO2 83.4%, O=C(CCN1CCCCC1)N[C@H]1CC[C@H](CCn2cc(-c3ccccc3)nn2)O[C@@H]1CO 124%, Cc1ccc(S(=O)(=O)Nc2ccc3c(c2)C(=O)N([C@H](C)CO)C[C@@H](C)[C@H](CN(C)S(C)(=O)=O)OCCCC[C@@H](C)O3)cc1 125%, COc1cccc(NC(=O)N[C@@H]2C=C[C@@H](CC(=O)N3CCN(C)CC3)O[C@@H]2CO)c1 86.1%

inhibition, inconclusive:
C[C@H]1CN([C@@H](C)CO)C(=O)Cc2cc(NC(=O)NC3CCCCC3)ccc2O[C@H]1CN(C)Cc1ccc(-c2ccccc2)cc1 73.8%, CC(=O)c1cn(CCCCCCCn2cc(C(C)=O)c(=O)[nH]c2=O)c(=O)[nH]c1=O 101%, O=C(c1cccc(F)c1)N1CCCCN2[C@@H](CO)[C@H](c3ccc(-c4cccnc4)cc3)[C@@H]2C1 74.5%, CCn1c(SCc2nc3scc(-c4ccccc4)c3c(=O)[nH]2)nnc1-c1ccc(Cl)cc1 80.1%, COc1ccc2c3c(n(C)c2c1)[C@H](CO)N(C(=O)Nc1ccc(F)cc1)CC31CN(CC2CCOCC2)C1 71.6%, COCC(=O)N1[C@@H]2CN(C(=O)Nc3ccccc3F)c3ccccc3[C@@H]2[C@@H]1CO 117%, C[C@H](CO)N1C[C@H](C)[C@@H](CN(C)C(=O)Nc2ccc(F)cc2)Oc2c(NC(=O)c3ccncc3)cccc2C1=O 78.4%, O=c1cc[nH]c2c(Cl)cccc12 77.4%, COc1ccc(C)cc1NC(=O)c1nnn(CCc2ccccc2)c1N 73.3%, CC(C)C#Cc1cnc2c(c1)C(=O)N([C@H](C)CO)C[C@H](C)[C@H](CN(C)C(=O)CN1CCOCC1)O2 84.8%, C[C@@H]1CCCCO[C@@H](CN(C)Cc2ccc3c(c2)OCO3)[C@@H](C)CN([C@H](C)CO)C(=O)c2cc(NC(=O)Nc3ccc4c(c3)OCO4)ccc2O1 70.7%, CC(C)N1CCC(=O)NC1=O 82.6%, CCn1c(-c2csc3ccccc23)n[nH]c1=S 76.1%, CCCNC(=O)Nc1ccc2c(c1)OC[C@H](C)N(CCC(F)(F)F)C[C@H](C)[C@@H](OC)CN(C)C2=O 77.9%, CCN(CC)CCCC(C)n1c2nc(=O)[nH]c(=O)c-2nc2cc(Cl)ccc21 (stereo not drawn) 76.8%, C[C@H](CO)N1C[C@H](C)[C@@H](CN(C)Cc2ccc(C(F)(F)F)cc2)Oc2c(NC(=O)CCCCCC(=O)Nc3ccccc3N)cccc2C1=O 84.3%, COc1ccc(CN(C)C[C@H]2OCCCC[C@H](C)Oc3ccc(NS(=O)(=O)c4ccccc4)cc3C(=O)N([C@H](C)CO)C[C@@H]2C)cc1 78.1%, Cc1ccc(S(=O)(=O)N2CCN(C(=O)c3c(-c4ccccc4)noc3C)CC2)cc1 85.1%, CC(C)CCN(C(=O)c1ccc(N2CCCC2=O)cc1)c1c(N)n(Cc2ccccc2)c(=O)[nH]c1=O 73.3%, O=c1ccc(-c2ccccc2)nn1Cc1ccc(Cl)cc1 72.7%, COc1ccc(C[C@@H]2CCn3cc(nn3)COC[C@@H](C(C)C)NC2=O)cc1 86.4%, C[C@@H]1CN([C@H](C)CO)C(=O)c2cc(NC(=O)c3ccccc3)ccc2O[C@@H](C)CCCCO[C@H]1CN(C)Cc1ccc(C(F)(F)F)cc1 74.5%, CCOC(=O)CSc1nc2c(c(=O)n(C)c(=O)n2C)n1Cc1ccccc1F 70.1%, COC(=O)CCC(=O)NC(=S)Nc1c(C)cccc1C 79.8%, COc1ccc(NC(=O)N[C@@H]2CC[C@H](CC(=O)NC3CCC3)O[C@@H]2CO)cc1 88.4%, C[C@H]1CN([C@@H](C)CO)C(=O)c2cccc(NC(=O)Nc3ccccc3)c2O[C@@H]1CN(C)Cc1ccc(C(=O)Nc2ccccc2N)cc1 90.6%, Cc1noc(C)c1S(=O)(=O)N(C)C[C@H]1Oc2ccc(NC(=O)C3CC3)cc2CC(=O)N([C@H](C)CO)C[C@H]1C 70.7%, Cc1cccc(N(C(=O)Cc2cccs2)C(C(=O)NCc2ccco2)c2ccncc2)c1 (stereo not drawn) 146%, CC(=O)Nc1ccc(NC(=O)CSc2nc(N)c(NC(=O)c3ccccc3F)c(=O)[nH]2)cc1 73%, COc1ccc(S(=O)(=O)N(C)C[C@H]2OCCCC[C@@H](C)Oc3ccc(NC(=O)Nc4ccc(C(F)(F)F)cc4)cc3C(=O)N([C@H](C)CO)C[C@@H]2C)cc1 117%, CC1=Nc2ccccc2/C1=C\c1nc(-c2ccc(C(F)(F)F)cc2)oc1O 74.6%, CCC(=O)Nc1ccc2c(c1)OC[C@@H](C)N(Cc1ccncc1)C[C@@H](C)[C@@H](OC)CN(C)C2=O 73.3%, CNC(=O)C[C@H]1CC[C@@H]2[C@H](COc3ccc(NC(=O)Nc4ccccc4OC)cc3C(=O)N2C)O1 124%, COC(=O)c1ccc(CNC(=O)N2CCN(S(=O)(=O)c3ccc(C)cc3)CC2)cc1 71%, COc1ccc2c(c1)C1=C(CC2)C(c2ccc(C)cc2)NC(=S)N1 (stereo not drawn) 91.7%, Fc1cccc(Cl)c1CN1CCN(c2ncc(Cc3ccccc3)cn2)CC1 74.6%, C[C@H]1CN([C@@H](C)CO)C(=O)Cc2cc(NC(=O)CCCN(C)C)ccc2O[C@@H]1CN(C)C(=O)Nc1ccc2c(c1)OCO2 72.1%, CCS(=O)(=O)Nc1ccc2c(c1)C(=O)N(C)[C@H]1CC[C@H](CC(=O)NC)O[C@@H]1CO2 87%, O=C(O)COc1ccccc1/C=N/NC(=O)c1cc(-c2ccc(Cl)cc2)nc2ccccc12 104%, C[C@@H]1CN([C@H](C)CO)C(=O)c2cc(C#C[C@@H](C)O)cnc2O[C@H]1CN(C)Cc1ccccn1 73.2%
